# Source: PubChem BioAssay AID1259425 (University of Nebraska Medical Center, 2018)
# Screen: 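Seek colon cancer weak points whose silencing resembles KSR1 loss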 (primary screen)
# Cells: HCT116 human colon cancer cells
# Reagent: siRNA pool against human genes, 50 nM siRNA
# Measured: 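After 50 nM siRNA pool, branched-DNA assay measures six marker transcripts per well, minus blank, normalised to the geometric mean of two housekeeping transcripts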
# Reading the numbers: BNIP3L mRNA: higher = more BNIP3L transcript after knockdown; NDRG1 mRNA: higher = more NDRG1 transcript after knockdown; BNIP3 mRNA: higher = more BNIP3 transcript after knockdown; ALDOC mRNA: higher = more ALDOC transcript after knockdown; ACSL5 mRNA: higher = more ACSL5 transcript after knockdown
# The deposit covers about 14,000 reagents; below is a part drawn at random. Not given: the time to read-out.
Target gene,"BNIP3L mRNA, set 1","NDRG1 mRNA, set 1","BNIP3 mRNA, set 1","ALDOC mRNA, set 1","ACSL5 mRNA, set 1"
LINC00574 (GeneID 80069),0.14,0.265,0.382,0.0205,0.285
URB2 (GeneID 9816),0.11,0.304,0.313,0.0189,0.252
DGKZ (GeneID 8525),0.246,0.459,1.32,0.0734,0.13
TIPE2 (GeneID 79626),0.193,0.315,0.389,0.0171,0.163
SIGLEC12 (GeneID 89858),0.113,0.111,0.32,0.0274,0.272
ZFHX4 (GeneID 79776),0.294,0.42,0.409,0.0287,0.529
CD300E (GeneID 342510),0.0502,0.15,0.296,0.0172,0.0821
SMO (GeneID 6608),0.218,0.433,0.723,0.0523,0.306
SLC25A23 (GeneID 79085),0.0412,0.233,0.277,0.0364,0.125
COL11A1 (GeneID 1301),0.158,0.457,0.255,0.0443,0.156
GNL1 (GeneID 2794),0.0462,0.14,0.358,0.0173,0.083
ADPRH (GeneID 141),0.0924,0.586,0.313,0.0365,0.185
LINC02249 (GeneID 26082),0.105,0.108,0.323,0.0173,0.0996
ST6GALNAC4 (GeneID 27090),0.0981,0.132,0.2,0.0107,0.26
CHMP6 (GeneID 79643),0.165,0.468,0.383,0.0672,0.279
BMP4 (GeneID 652),0.0899,0.0625,0.181,0.0283,0.0971
MBP (GeneID 4155),0.203,2.27,0.421,0.0384,0.572
SRSF11 (GeneID 9295),0.0419,0.189,0.368,0.0192,0.199
ALLC (GeneID 55821),0.131,0.142,0.24,0.0336,0.202
ZNF461 (GeneID 92283),0.107,0.134,0.272,0.0362,0.11
EMC3 (GeneID 55831),0.109,0.177,0.345,0.06,0.139
MMS19 (GeneID 64210),0.1,0.281,0.341,0.0214,0.234
MYORG (GeneID 57462),0.164,0.328,0.322,0.0649,0.343
GABRA1 (GeneID 2554),0.122,0.159,0.375,0.028,0.136
GALNT3 (GeneID 2591),0.0824,0.0875,0.183,0.0185,0.0565
MCM7 (GeneID 4176),0.0727,0.113,0.265,0.0221,0.142
LHFPL6 (GeneID 10186),0.0977,0.07,0.423,0.0171,0.558
BPHL (GeneID 670),0.0293,0.151,0.207,0.0068,0.177
PCBD2 (GeneID 84105),0.155,0.188,0.301,0.0443,0.459
LPCAT3 (GeneID 10162),0.096,0.092,0.222,0.0467,0.118
ATP5MC2 (GeneID 517),0.388,0.112,0.443,0.0618,0.43
IGKC (GeneID 3514),0.0853,0.0749,0.348,0.0174,0.0638
NEUROG2 (GeneID 63973),0.147,0.236,0.3,0.0732,0.191
OPRL1 (GeneID 4987),0.0812,0.0728,0.235,0.0525,0.155
SUN2 (GeneID 25777),0.134,0.454,0.613,0.0642,0.19
APOL5 (GeneID 80831),0.0835,0.116,0.373,0.0181,0.157
TXN2 (GeneID 25828),0.225,0.445,0.516,0.0267,0.246
PRRG2 (GeneID 5639),0.188,0.361,0.296,0.0188,0.185
CRLF2 (GeneID 64109),0.092,0.167,0.247,0.0252,0.126
TMPRSS11E (GeneID 28983),0.146,0.303,0.361,0.0209,0.217
MMRN1 (GeneID 22915),0.125,0.134,0.359,0.0283,0.116
SLC30A6 (GeneID 55676),0.1,0.103,0.333,0.0177,0.0932
PHTF2 (GeneID 57157),0.0994,0.181,0.432,0.0268,0.0875
TNFSF10 (GeneID 8743),0.092,0.0732,0.266,0.0253,0.123
TMEM98 (GeneID 26022),0.137,0.0696,0.274,0.0397,0.212
FSHB (GeneID 2488),0.115,0.233,0.304,0.0714,0.113
OGDHL (GeneID 55753),0.034,0.296,0.303,0.0419,0.146
ALG9 (GeneID 79796),0.113,0.215,0.335,0.0287,0.149
ITGA1 (GeneID 3672),0.0976,0.191,0.255,0.0209,0.132
DGKQ (GeneID 1609),0.0186,0.329,0.258,0.0137,0.169

Entries listed so far whose target name starts with I or i (2):
Target gene,"BNIP3L mRNA, set 1","NDRG1 mRNA, set 1","BNIP3 mRNA, set 1","ALDOC mRNA, set 1","ACSL5 mRNA, set 1"
IGKC (GeneID 3514),0.0853,0.0749,0.348,0.0174,0.0638
ITGA1 (GeneID 3672),0.0976,0.191,0.255,0.0209,0.132
